Laboratory results: patent US20090117126A1
No constants are given. Whether binding was seen depends on the method and setting. Some entries that bind do so weakly or less than the wild type.

Biological target: T1, recombinant human IL-17 (human) (UniProt Q16552)
T1 sequence (looked up): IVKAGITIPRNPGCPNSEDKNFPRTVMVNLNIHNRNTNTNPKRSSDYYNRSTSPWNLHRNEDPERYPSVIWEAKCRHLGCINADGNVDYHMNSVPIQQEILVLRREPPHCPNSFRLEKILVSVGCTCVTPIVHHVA
Test: ELISA, primary screen of hybridomas

binding: binds
B1: murine monoclonal antibody IL-17F4.100 (antibody, V domains shown)
VH: QVQLKESGPGLVAPSQSLSITCTVSGFSLTTYGVHWIRQPPGKGLEWLVVIWSDGYTTYNSALKSRLSITKDNSKSQVFLKMNSLQTDDTAMYYCARNDGDYFYSMDYWGQGTSVTVSS
VL: DVVMTQTPLSLPVSLGDQASFSCRSSQSLVHSNGNTYLHWYLQKPGQSPKLLIYKVSNRFSGVPDRFSGSGSGTDFTLKISRVEAEDLGVYFCSQSTHVPTFGGGTKLEIKR
